Test results published in the supplement of paper PMC4604168 (melanoma cell lines).
The other results are listed elsewhere or left out. Repeats are few or missing, and single values can be far off.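 The apoptosis fraction was the count of cleaved-PARP antibody-stained nuclei relative to all DNA-stained nuclei, imaged in 1,536-well plates. Screening doses were set so most cells survived, and baseline and induced cleaved-PARP levels vary greatly across cell lines.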

How the values were obtained:
Assay in all cases: cleaved PARP positive nuclei fraction relative to DMSO control; melanoma cells; higher = more apoptosis
Settings in all cases: library dose: low library concentration; 72 h
501Mel = tested on: 501Mel
A101D = tested on: A101D
A2058 = tested on: A2058
A375 = tested on: A375
C32 = tested on: C32
CBRC008 = tested on: CBRC008 (line from a melanoma biopsy)
CBRC014 = tested on: CBRC014 (line from a melanoma biopsy)
CBRC016 = tested on: CBRC016 (line from a melanoma biopsy)
CBRC017 = tested on: CBRC017 (line from a melanoma biopsy)
CBRC034 = tested on: CBRC034 (line from a melanoma biopsy)
COLO792 = tested on: COLO792
COLO800 = tested on: COLO800
COLO829 = tested on: COLO829
G361 = tested on: G361
IPC-298 = tested on: IPC-298
IST-MEL1 = tested on: IST-MEL1
LB2518-MEL = tested on: LB2518-MEL
LOXIMVI = tested on: LOXIMVI
MEL-HO = tested on: MEL-HO

Row | Structure (SMILES) | cleaved PARP positive nuclei fraction (501Mel) | cleaved PARP positive nuclei fraction (A101D) | cleaved PARP positive nuclei fraction (A2058) | cleaved PARP positive nuclei fraction (A375) | cleaved PARP positive nuclei fraction (C32) | cleaved PARP positive nuclei fraction (CBRC008) | cleaved PARP positive nuclei fraction (CBRC014) | cleaved PARP positive nuclei fraction (CBRC016) | cleaved PARP positive nuclei fraction (CBRC017) | cleaved PARP positive nuclei fraction (CBRC034) | cleaved PARP positive nuclei fraction (COLO792) | cleaved PARP positive nuclei fraction (COLO800) | cleaved PARP positive nuclei fraction (COLO829) | cleaved PARP positive nuclei fraction (G361) | cleaved PARP positive nuclei fraction (IPC-298) | cleaved PARP positive nuclei fraction (IST-MEL1) | cleaved PARP positive nuclei fraction (LB2518-MEL) | cleaved PARP positive nuclei fraction (LOXIMVI) | cleaved PARP positive nuclei fraction (MEL-HO)
1 | Cn1sc(=O)n(Cc2ccccc2)c1=O + CS(=O)(=O)CCNCc1ccc(-c2ccc3ncnc(Nc4ccc(OCc5cccc(F)c5)c(Cl)c4)c3c2)o1 [lapatinib] (first compound 0.4 µM, partner dose 0.8 µM) | 76.2% | 94% | 200% | 158% | 83.9% | 114% | 102% | 75.7% | 112% | 114% | 105% | 110% | 85.9% | 94.1% | 84.1% | 174% | 104% | 233% | 92.7%
2 | CC1(C)CCC(c2ccc(Cl)cc2)=C(CN2CCN(c3ccc(C(=O)NS(=O)(=O)c4ccc(N[C@H](CCN5CCOCC5)CSc5ccccc5)c(S(=O)(=O)C(F)(F)F)c4)cc3)CC2)C1 + C[C@]1(O)C[C@@H](c2nc(-c3ccc4ccc(-c5ccccc5)nc4c3)c3c(N)nccn32)C1 [OSI906] (first compound 0.4 µM, partner dose 0.4 µM) | 445% | 89.2% | 225% | 892% | 652% | 651% | 1080% | 684% | 477% | 119% | 367% | 34.9% | 29.4% | 107% | 60.6% | 36.2% | 332% | 218% | 133%
3 | CCCCCCCCc1ccc(CCC(N)(CO)CO)cc1 [fingolimod] + Nc1ncn([C@H]2C[C@H](O)[C@@H](CO)O2)c(=O)n1 [decitabine] (first compound 2 µM, partner dose 0.1 µM) | 184% | 183% | 182% | 48.1% | 282% | 78.3% | 101% | 90.7% | 115% | 38.7% | 90% | 102% | 163% | 63.6% | 182% | 279% | 224% | 108% | 298%
4 | C[C@]1(O)C[C@@H](c2nc(-c3ccc4ccc(-c5ccccc5)nc4c3)c3c(N)nccn32)C1 + C[C@]1(c2nc3c(C(N)=O)cccc3[nH]2)CCCN1 [Veliparib] (first compound 0.4 µM, partner dose 1.4 µM) | 134% | 48.9% | 77.6% | 210% | 93.8% | 51.2% | 100% | 36% | 85.5% | 75.8% | 87.8% | 130% | 116% | 110% | 44% | 171% | 118% | 128% | 73.8%
5 | NC(=O)c1ccc(N(C(N)=O)c2c(F)cccc2F)nc1-c1ccc(F)cc1F + Nc1nc(F)nc2c1ncn2[C@@H]1O[C@H](CO)[C@@H](O)[C@@H]1O [fludarabine] (first compound 0.4 µM, partner dose 0.2 µM) | 22100% | 44.7% | 116% | 6620% | 85.6% | 90.2% | 131% | 40.2% | 123% | 75.3% | 41.9% | 68% | 70.3% | 166% | 43.2% | 135% | 576% | 73.5% | 85.2%
6 | Cn1cnc2c(F)c(Nc3ccc(Br)cc3Cl)c(C(=O)NOCCO)cc21 [selumetinib] + CS(=O)(=O)c1ccc(C(=O)Nc2ccc(Cl)c(-c3ccccn3)c2)c(Cl)c1 [vismodegib] (first compound 0.015 µM, partner dose 1 µM) | 308% | 43.5% | 124% | 105% | 63.6% | 100% | 108% | 122% | 137% | 85.4% | 21.2% | 311% | 38.3% | 191% | 98.2% | 129% | 226% | 150% | 197%
7 | Cn1cnc2c(F)c(Nc3ccc(Br)cc3Cl)c(C(=O)NOCCO)cc21 [selumetinib] + Nc1ncn([C@H]2C[C@H](O)[C@@H](CO)O2)c(=O)n1 [decitabine] (first compound 0.015 µM, partner dose 0.1 µM) | 1010% | 109% | 69.5% | 303% | 80.3% | 268% | 78% | 218% | 150% | 127% | 223% | 97.3% | 129% | 147% | 152% | 236% | 191% | 111% | 229%
8 | C[C@]1(O)C[C@@H](c2nc(-c3ccc4ccc(-c5ccccc5)nc4c3)c3c(N)nccn32)C1 + COc1ccc(Cl)c(Nc2nc3ccccc3nc2NS(=O)(=O)c2cccc(NC(=O)C(C)(C)N)c2)c1 [XL147] (first compound 0.4 µM, partner dose 0.8 µM) | 103% | 32.3% | 156% | 346% | 86.2% | 159% | 113% | 47.9% | 122% | 79.3% | 57.2% | 128% | 117% | 73.9% | 43.4% | 134% | 96.1% | 105% | 207%
